The other results are listed elsewhere or left out. These are further read-outs of the screen, such as a control signal, another cell line or another target. No call is given for them. Compounds called inactive in the main read-out are mostly missing here. Potencies come from curve fits of mixed quality, noted in brackets.
Assay: qHTS Assay to Find Inhibitors of Chronic Active B-Cell Receptor Signaling
Conditions: ABC-DLBCL IkBa-CBG/CBR reporter, luminescence ratio (green luciferase fused to IkBa over red control in TMD8 lymphoma cells), 4 h
How it was run: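 TMD8 human ABC-DLBCL cells with doxycycline-inducible IκBα–green luciferase fusion and unfused red luciferase, in 0.5% FBS medium; compounds up to 46 uM, 4 h at 37C. Green/red luminescence ratio, filter-overlap corrected, fitted to concentration-response curves.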

[1] = measured here: CBR red luminescence, cell number
[2] = measured here: IkBa-CBG green luminescence

Row | SMILES | AC50 [1] | AC50 [2]
1 | CC(C)c1ccc(NC(=O)CSC(C)c2nc3ccccc3c(=O)[nH]2)cc1 (configuration not stated) | 35.5 µM [rising, single point] | –
2 | O=c1ccc(-c2ccccc2)nn1Cc1ccc(F)cc1 | 0.708 µM [rising, full curve, poor fit] | –
3 | Cc1ccc(Cl)cc1N1CCN(C(=O)c2ccccc2SCC(=O)N2CCCC2)CC1 | 29.1 µM [falling, single point] | –
4 | CCCCn1c(N)c(C(=S)NC(=O)CC(C)(C)C)c(=O)n(C)c1=O | 20.6 µM [rising, single point] | –
5 | CCOC(=O)Cc1csc(NC(=O)COc2cc(C)cc(C)c2)n1 | 11.2 µM [falling, partial curve, poor fit] | –
6 | Cc1ccc(C(=O)OCc2cn3ccccc3n2)cc1 | 29.1 µM [rising, single point] | –
7 | COc1ccc(/C=N/NC(=O)c2ccccc2NC(=O)c2ccco2)c(OC)c1 | 17.8 µM [falling, partial curve, poor fit] | –
8 | CCn1c(SCC(=O)c2ccccc2)nc2ccccc2c1=O | 7.94 µM [falling, partial curve] | –
9 | COc1ccccc1C(=O)Nc1nnc(-c2ccc3c(c2)CCCC3)o1 | – | 28.2 µM [falling, single point]
10 | COCCNC(=O)c1c[nH]c2ccc(OC)cc2c1=O | 35.5 µM [falling, single point] | –
11 | COc1cc(/C=N/NC(=O)c2cc(-c3ccccc3)sc2N)cc(OC)c1OC | 25.1 µM [falling, single point] | –
12 | COC(=O)/C=C/COc1ccccc1[N+](=O)[O-] | 35.5 µM [falling, single point] | –
13 | O=C(OCC(=O)N1CCc2ccccc21)[C@@H]1CC(O)CN1S(=O)(=O)c1ccccc1[N+](=O)[O-] (some centres not stated) | 25.9 µM [rising, single point] | –
14 | Cc1noc(C)c1CSCC(=O)Nc1nc(-c2ccc(F)c(F)c2)cs1 | 9.2 µM [falling, partial curve] | 9.2 µM [rising, partial curve, poor fit]
15 | C=CCNC(=O)c1nc2ccccc2s1 | 14.6 µM [falling, partial curve] | –
16 | CC(C)(C)C(=O)Nc1cc(C(F)(F)F)ccc1N1CCOCC1 | 29.1 µM [falling, single point] | –
17 | O=C(O)CCC(=O)Nc1ccc2c(c1)Cc1cc(NC(=O)CCC(=O)O)ccc1-2 | 14.1 µM [falling, partial curve] | –
18 | C=CCn1c(=N)n(CC(=O)c2ccccc2)c2ccccc21 | 0.398 µM [rising, full curve, poor fit] | –
19 | Cc1cc(C)cc(NC(=S)N2CCN(c3ncc(C(F)(F)F)cc3Cl)CC2)c1 | 0.501 µM [falling, partial curve, poor fit] | –
20 | Cc1ccc(NC(=O)c2ccccc2NS(=O)(=O)c2ccc(Cl)s2)cc1 | – | 6.51 µM [rising, partial curve, poor fit]
21 | Cc1ccccc1C(=O)OCCN(C)Cc1ccccc1 | 0.631 µM [rising, full curve, poor fit] | –

Row | SMILES | AC50 [1] | AC50 [2]
22 | CCC(=O)N1N=C(c2cccc(NS(C)(=O)=O)c2)CC1c1cccs1 (configuration not stated) | 29.1 µM [falling, single point] | –
23 | CSc1cccc(NC(=O)Nc2nc3c(C)cccc3s2)c1 | 1.58 µM [falling, full curve] | –
24 | Nc1c(Cl)cnc(C(Cl)(Cl)Cl)c1Cl | 14.1 µM [rising, partial curve, poor fit] | –
25 | NC(=S)Nc1cccc2[nH]ccc12 | 3.55 µM [falling, partial curve] | –
26 | CCc1cccc(NC(=O)CCC(=O)O)c1 | 0.206 µM [rising, full curve, poor fit] | –
27 | CCN(CC(=O)Nc1ccc(OC)cc1)C(=O)CSCC(=O)Nc1ccc(C)cc1 | 4.47 µM [rising, partial curve, poor fit] | –
28 | COc1ccc2nc(/C(C#N)=C\c3ccc(Oc4ccc([N+](=O)[O-])cn4)cc3)[nH]c2c1 | 32.6 µM [falling, single point] | 29.1 µM [rising, partial curve, poor fit]
29 | Cc1ccc(C(=O)Nc2ccccc2C(=O)NC(C(=O)O)C(C)C)cc1 (configuration not stated) | 8.91 µM [falling, partial curve] | –
30 | CS(=O)(=O)Nc1ccc(C(=O)NCCSCc2c(F)cccc2Cl)cc1 | 35.5 µM [falling, single point] | –
31 | COCCCNC(=O)Cn1nnc(-c2ccccc2NC(=O)c2ccc(F)cc2)n1 | 3.55 µM [falling, partial curve, poor fit] | –
32 | O=C(OCC(=O)c1ccc[nH]1)c1ccc(Cl)c(Cl)c1 | 29.1 µM [falling, single point] | 23.1 µM [falling, partial curve, poor fit]
33 | CCOc1ccc(NC(=O)c2cc(S(=O)(=O)N3CCOCC3)ccc2F)cc1 | 7.08 µM [falling, full curve, poor fit] | –
34 | CC1Cc2ccccc2N1Cc1cc(=O)c(OCC(=O)Nc2ccccc2)co1 (configuration not stated) | 6.51 µM [rising, single point] | –
35 | CC(C)c1ccc(OCC(=O)NC2=NCCS2)cc1 | 3.98 µM [rising, single point] | –
36 | COc1cccc(C(=O)Nc2cccc(-c3nc4ncccc4o3)c2C)c1 | 7.08 µM [falling, partial curve, poor fit] | –
37 | CC1CCC2CCCCC2N1C(=O)c1cc([N+](=O)[O-])cc([N+](=O)[O-])c1 (configuration not stated) | 0.282 µM [falling, full curve, poor fit] | –
38 | CCCCCCCCCn1c2c(c(=N)c3c1CCC3)CCC2 | 0.82 µM [falling, full curve, poor fit] | 23.1 µM [rising, partial curve, poor fit]
39 | O=C(NC(=O)c1ccccc1O)c1ccc(C(F)(F)F)cc1 | 2.24 µM [falling, full curve] | –
40 | COc1ccccc1-n1c(-c2ccc(Cl)cc2)c[nH]c1=S | 25.1 µM [falling, single point] | –
41 | CC[n+]1c(/C=C/c2ccc(OC(C)=O)c(OC)c2)ccc2ccccc21 | 6.31 µM [rising, partial curve, poor fit] | –
42 | O=C(NC(=S)NNC(=O)c1cccs1)c1ccccc1 | 6.31 µM [falling, partial curve] | –

Part of the list above in order of number of heavy atoms, high to low.
Row | SMILES | AC50 [1] | AC50 [2]
28 | COc1ccc2nc(/C(C#N)=C\c3ccc(Oc4ccc([N+](=O)[O-])cn4)cc3)[nH]c2c1 | 32.6 µM [falling, single point] | 29.1 µM [rising, partial curve, poor fit]
31 | COCCCNC(=O)Cn1nnc(-c2ccccc2NC(=O)c2ccc(F)cc2)n1 | 3.55 µM [falling, partial curve, poor fit] | –
11 | COc1cc(/C=N/NC(=O)c2cc(-c3ccccc3)sc2N)cc(OC)c1OC | 25.1 µM [falling, single point] | –
19 | Cc1cc(C)cc(NC(=S)N2CCN(c3ncc(C(F)(F)F)cc3Cl)CC2)c1 | 0.501 µM [falling, partial curve, poor fit] | –
30 | CS(=O)(=O)Nc1ccc(C(=O)NCCSCc2c(F)cccc2Cl)cc1 | 35.5 µM [falling, single point] | –
5 | CCOC(=O)Cc1csc(NC(=O)COc2cc(C)cc(C)c2)n1 | 11.2 µM [falling, partial curve, poor fit] | –
38 | CCCCCCCCCn1c2c(c(=N)c3c1CCC3)CCC2 | 0.82 µM [falling, full curve, poor fit] | 23.1 µM [rising, partial curve, poor fit]
21 | Cc1ccccc1C(=O)OCCN(C)Cc1ccccc1 | 0.631 µM [rising, full curve, poor fit] | –
6 | Cc1ccc(C(=O)OCc2cn3ccccc3n2)cc1 | 29.1 µM [rising, single point] | –
32 | O=C(OCC(=O)c1ccc[nH]1)c1ccc(Cl)c(Cl)c1 | 29.1 µM [falling, single point] | 23.1 µM [falling, partial curve, poor fit]
15 | C=CCNC(=O)c1nc2ccccc2s1 | 14.6 µM [falling, partial curve] | –
24 | Nc1c(Cl)cnc(C(Cl)(Cl)Cl)c1Cl | 14.1 µM [rising, partial curve, poor fit] | –

(continued)

Row | SMILES | AC50 [1] | AC50 [2]
43 | O=C(CCCn1c(=O)oc2ccccc21)N1CCN(c2ccc(F)cc2)CC1 | 3.16 µM [rising, partial curve, poor fit] | –
44 | Nc1nc(-c2ccccc2)nc2sc3c(c12)CCCC3 | 16.4 µM [falling, partial curve, poor fit] | –
45 | Cc1ccc(NC(=O)CN(C)CC(=O)Nc2ccc(N3CCOCC3)cc2)c([N+](=O)[O-])c1 | 4.61 µM [rising, full curve, poor fit] | –
46 | CCOc1ccc2nc(COC(=O)c3cccs3)c(C(C)=O)[n+]([O-])c2c1 | 35.5 µM [falling, single point] | –
47 | Cc1ccsc1C1C(C#N)=C(N)Oc2n[nH]c(C)c21 (configuration not stated) | 10 µM [falling, partial curve] | –
48 | Cc1cccc(OCC(=O)Nc2ccc3c(c2)nc(CCN2CCN(c4ccccn4)CC2)n3C)c1 | 22.4 µM [falling, single point] | –
49 | CCN1C(=O)C(c2ccc(O)cc2)(c2ccc(O)cc2)c2ccccc21 | 11.2 µM [falling, partial curve] | –
50 | Nc1c(Cl)cc(C2=NCCn3nc4cc([N+](=O)[O-])ccc4c32)cc1Cl | 1.46 µM [falling, partial curve, poor fit] | –
51 | O=C(Nc1cccc(OCC(=O)N2CCOCC2)c1)c1ccc(C(F)(F)F)cc1 | 17.8 µM [falling, partial curve, poor fit] | –
52 | COCc1cc(=O)n2[nH]c(-c3cccs3)cc2n1 | 11.2 µM [falling, partial curve, poor fit] | –
53 | COCCNC(=O)[C@H]1N2C(=O)c3c(ccc(OC)c3OC)C2SC1(C)C (some centres not stated) | 4.47 µM [rising, full curve, poor fit] | –
54 | CC(=O)Oc1cc2oc(=O)cc(C)c2cc1OC(C)=O | 22.4 µM [falling, single point] | –
55 | O=C(O)CSc1cc(NS(=O)(=O)c2ccc(Cl)cc2)c2ccccc2c1O | 22.4 µM [falling, single point] | –
56 | COc1ccc(CCNC(=O)CSc2nnc(CNC(=O)c3c(F)cccc3Cl)o2)cc1OC | 3.55 µM [rising, partial curve, poor fit] | –
57 | O=C1C2=C(NC(=S)NC2c2ccc(Cl)cc2)NC(c2ccc(Cl)cc2)N1c1ccc(Cl)cc1 (configuration not stated) | 10 µM [falling, partial curve] | –
58 | O=C(NCCC1=CCCCC1)c1ccc2c(=O)n3c(nc2c1)CCCCC3 | 2.82 µM [rising, full curve, poor fit] | –
59 | CC(=O)Nc1sc2c(c1-c1nc3ccccc3s1)CN(C(C)C)CC2 | 29.1 µM [falling, single point] | –
60 | O=C(CN1CCCN(S(=O)(=O)c2ccc(Br)s2)CC1)Nc1ccc(Cl)cc1 | 20.6 µM [falling, single point] | –
61 | Cn1c(-c2ccc(F)cc2)cc2onc(-c3ccccc3Cl)c2c1=O | 1.64 µM [rising, partial curve, poor fit] | –
62 | O=C(OCn1ncc(Br)c(Br)c1=O)c1ccccc1Cl | 5.8 µM [falling, full curve, poor fit] | 3.66 µM [rising, full curve, poor fit]

From PubChem BioAssay AID493014 (National Center for Advancing Translational Sciences (NCATS), 2011)
